Here are results for two molecules from publication PMC6138439.

Chains of the proteins cited; added tags and fusions are not shown.
UniProt Q9UI95: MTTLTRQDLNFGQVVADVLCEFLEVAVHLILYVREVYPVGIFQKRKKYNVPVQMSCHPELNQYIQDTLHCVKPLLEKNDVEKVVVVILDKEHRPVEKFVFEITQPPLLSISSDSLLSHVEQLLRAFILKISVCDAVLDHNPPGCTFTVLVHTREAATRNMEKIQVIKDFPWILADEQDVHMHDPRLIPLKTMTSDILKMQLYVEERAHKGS

Assay [1] concerns the target Flag-REV7 (human) (UniProt Q9UI95). Description: co-IP; HEK293T co-transfected with Flag- and GFP-tagged vectors; DMSO or 10 uM ATM inhibitor KU-60019 1 h before irradiation (10 Gy); lysis in 50 mM Tris, 300 mM NaCl, 1 mM EDTA, 1% Triton X-100; nuclear extracts with benzonase; anti-Flag (M2) resin, 4 C, 2 h; immunoblot for GFP. For orientation: A western blot detects proteins with antibodies after separation by electrophoresis.

The target in assay [2] is T1, Flag-SHLD2 (human) (UniProt Q86V20).
T1 sequence: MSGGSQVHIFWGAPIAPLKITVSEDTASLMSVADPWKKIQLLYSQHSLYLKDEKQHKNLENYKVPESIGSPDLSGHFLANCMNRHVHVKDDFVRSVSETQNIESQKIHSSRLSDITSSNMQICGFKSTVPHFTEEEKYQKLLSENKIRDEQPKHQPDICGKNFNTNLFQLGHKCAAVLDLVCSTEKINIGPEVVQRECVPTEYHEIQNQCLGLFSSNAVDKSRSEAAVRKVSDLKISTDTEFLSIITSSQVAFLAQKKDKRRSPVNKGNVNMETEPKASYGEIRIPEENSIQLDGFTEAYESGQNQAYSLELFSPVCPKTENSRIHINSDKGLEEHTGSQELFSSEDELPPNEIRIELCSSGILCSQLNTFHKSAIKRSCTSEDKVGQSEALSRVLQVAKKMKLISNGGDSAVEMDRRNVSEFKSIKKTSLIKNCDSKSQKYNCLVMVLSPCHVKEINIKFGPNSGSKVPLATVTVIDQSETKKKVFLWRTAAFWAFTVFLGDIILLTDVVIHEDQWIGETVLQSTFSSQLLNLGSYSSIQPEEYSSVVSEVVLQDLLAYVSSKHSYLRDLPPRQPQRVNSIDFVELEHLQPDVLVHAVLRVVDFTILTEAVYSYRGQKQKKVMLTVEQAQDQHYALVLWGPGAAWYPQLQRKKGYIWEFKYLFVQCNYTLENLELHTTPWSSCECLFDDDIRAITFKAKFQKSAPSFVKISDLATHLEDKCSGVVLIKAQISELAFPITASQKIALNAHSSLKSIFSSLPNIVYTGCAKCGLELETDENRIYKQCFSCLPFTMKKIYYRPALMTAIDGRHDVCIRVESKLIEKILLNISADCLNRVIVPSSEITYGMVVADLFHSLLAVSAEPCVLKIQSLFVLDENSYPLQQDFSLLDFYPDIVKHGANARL
Described as above.

These are yes or no findings as the source states them, for the method shown. Binding seen in cells or lysates may run through a third protein. Some binding calls cover weakened binding; strength is not graded here. Tags and fused reporters may be left off the sequences shown.

B1: GFP-SHLD2 (protein, UniProt Q86V20-2 1-904)
chain: T1 sequence
With B1, the binding result in assay [1] was “binds”.

B2: GFP-SHLD1 (protein, UniProt Q8IYI0 1-205)
chain: MAARDATSGSLSEESSALDLPSACDIRDYVLQGPSQEANSEAFSSLEFHSFPYSSDVDPDTSNLNIEQNNSWTAENFWLDPAVKGQSEKEEDDGLRKSLDRFYEMFGHPQPGSANSLSASVCKCLSQKITQLRGQESQKYALRSFQMARVIFNRDGCSVLQRHSRDTHFYPLEEGSTSLDDEKPNPGLSKDITHFLLQQNVMKDL
For the molecule B2, the binding result in assay [1] and in assay [2] was “binds” in each case.
